Reference: article PMC10786121, “Rab29-dependent asymmetrical activation of leucine-rich repeat kinase 2” (Science (New York, N.Y.), 2023)

Protein sequences, listed by entry. Tags and fused reporters are not part of them. Lines headed by an entry give the natural chain unless they say otherwise; changes in a name come on top.
UniProt Q5S007: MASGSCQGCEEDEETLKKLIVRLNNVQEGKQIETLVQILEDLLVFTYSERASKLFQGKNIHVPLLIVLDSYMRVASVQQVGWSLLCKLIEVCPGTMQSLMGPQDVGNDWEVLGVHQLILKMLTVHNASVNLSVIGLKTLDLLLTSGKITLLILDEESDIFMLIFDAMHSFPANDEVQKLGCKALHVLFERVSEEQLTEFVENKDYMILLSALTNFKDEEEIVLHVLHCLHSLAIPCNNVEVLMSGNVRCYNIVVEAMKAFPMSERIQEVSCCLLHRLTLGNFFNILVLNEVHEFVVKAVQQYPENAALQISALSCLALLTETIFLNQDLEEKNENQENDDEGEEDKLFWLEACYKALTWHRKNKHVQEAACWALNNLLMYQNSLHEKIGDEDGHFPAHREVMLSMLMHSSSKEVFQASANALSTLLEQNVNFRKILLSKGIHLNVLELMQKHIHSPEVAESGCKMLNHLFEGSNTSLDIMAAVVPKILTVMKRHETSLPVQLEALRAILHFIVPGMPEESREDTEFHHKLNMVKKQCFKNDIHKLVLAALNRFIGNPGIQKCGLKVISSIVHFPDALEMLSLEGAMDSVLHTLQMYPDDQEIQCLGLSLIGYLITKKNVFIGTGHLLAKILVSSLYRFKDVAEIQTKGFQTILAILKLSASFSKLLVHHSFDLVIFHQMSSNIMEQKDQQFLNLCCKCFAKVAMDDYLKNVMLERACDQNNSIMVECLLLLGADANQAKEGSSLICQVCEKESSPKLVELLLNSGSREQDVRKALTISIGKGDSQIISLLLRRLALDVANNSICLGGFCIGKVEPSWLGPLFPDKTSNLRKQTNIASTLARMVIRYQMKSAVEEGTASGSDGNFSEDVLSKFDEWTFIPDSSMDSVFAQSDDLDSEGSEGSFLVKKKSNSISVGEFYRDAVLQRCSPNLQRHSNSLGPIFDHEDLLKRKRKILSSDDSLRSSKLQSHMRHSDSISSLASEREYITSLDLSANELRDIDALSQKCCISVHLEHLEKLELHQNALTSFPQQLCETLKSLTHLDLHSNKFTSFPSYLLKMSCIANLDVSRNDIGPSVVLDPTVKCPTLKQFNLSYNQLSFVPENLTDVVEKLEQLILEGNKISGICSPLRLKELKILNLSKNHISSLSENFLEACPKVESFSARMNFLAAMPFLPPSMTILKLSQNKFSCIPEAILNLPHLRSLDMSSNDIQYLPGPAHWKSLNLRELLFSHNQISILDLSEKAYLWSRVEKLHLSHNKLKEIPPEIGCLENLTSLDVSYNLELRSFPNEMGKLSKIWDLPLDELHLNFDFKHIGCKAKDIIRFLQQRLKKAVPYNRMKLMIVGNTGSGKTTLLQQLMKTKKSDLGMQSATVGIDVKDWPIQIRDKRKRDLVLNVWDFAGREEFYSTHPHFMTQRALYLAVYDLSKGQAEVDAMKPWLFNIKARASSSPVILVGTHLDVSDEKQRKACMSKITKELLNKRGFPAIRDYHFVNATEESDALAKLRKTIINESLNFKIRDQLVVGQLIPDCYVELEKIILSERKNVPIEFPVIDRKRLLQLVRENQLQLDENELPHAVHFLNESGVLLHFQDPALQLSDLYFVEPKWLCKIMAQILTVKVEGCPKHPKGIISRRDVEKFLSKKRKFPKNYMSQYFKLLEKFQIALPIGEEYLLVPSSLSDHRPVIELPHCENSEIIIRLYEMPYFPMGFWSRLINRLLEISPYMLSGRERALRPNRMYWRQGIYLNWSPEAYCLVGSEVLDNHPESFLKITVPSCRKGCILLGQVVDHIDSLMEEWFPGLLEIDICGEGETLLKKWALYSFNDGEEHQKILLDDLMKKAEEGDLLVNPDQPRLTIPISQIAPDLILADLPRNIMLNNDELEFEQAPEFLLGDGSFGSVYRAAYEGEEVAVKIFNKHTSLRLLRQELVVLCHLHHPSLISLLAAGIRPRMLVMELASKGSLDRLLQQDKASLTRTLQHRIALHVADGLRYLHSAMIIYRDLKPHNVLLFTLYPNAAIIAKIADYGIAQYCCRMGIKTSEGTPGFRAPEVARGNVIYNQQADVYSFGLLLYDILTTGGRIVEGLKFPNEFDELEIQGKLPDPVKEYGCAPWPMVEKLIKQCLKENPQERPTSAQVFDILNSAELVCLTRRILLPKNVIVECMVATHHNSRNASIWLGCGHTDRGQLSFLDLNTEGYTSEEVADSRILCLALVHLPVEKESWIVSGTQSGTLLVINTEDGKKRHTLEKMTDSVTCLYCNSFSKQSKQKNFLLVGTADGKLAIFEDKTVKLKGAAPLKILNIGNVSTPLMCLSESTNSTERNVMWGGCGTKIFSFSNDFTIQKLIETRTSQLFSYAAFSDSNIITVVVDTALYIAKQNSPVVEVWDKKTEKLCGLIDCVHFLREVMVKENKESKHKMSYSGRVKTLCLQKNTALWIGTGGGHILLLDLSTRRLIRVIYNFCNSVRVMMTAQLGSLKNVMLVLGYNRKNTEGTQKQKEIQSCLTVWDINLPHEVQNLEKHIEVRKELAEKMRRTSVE
UniProt O14966: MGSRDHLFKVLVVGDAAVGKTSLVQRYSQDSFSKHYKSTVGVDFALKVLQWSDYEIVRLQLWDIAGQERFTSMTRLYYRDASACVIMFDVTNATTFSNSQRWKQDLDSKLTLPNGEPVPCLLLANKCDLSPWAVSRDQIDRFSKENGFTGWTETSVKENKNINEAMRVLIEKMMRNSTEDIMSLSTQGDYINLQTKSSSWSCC

Molecular target: leucine-rich repeat kinase 2 (LRRK2) (UniProt Q5S007)
Experiment: pull-down; GST pulldown assay, in vitro (fig. S2G); which partner bore GST is not told in the text shown

| Substance | binding |
| --- | --- |
| Rab29 L7Q (from UniProt O14966) | binds |
| Rab29 L76M (from UniProt O14966) | binds |

Results are given in words; binding and its absence hold for the method and conditions named. In cells and extracts the contact can be indirect. Binding calls can cover weak binding; strength is not graded here.
